Values quoted from earlier work, collected in patent US20220184234A1, “METABOLIC TARGETING OF LOW GRADE TUMORS” (SonalaSense, Inc., priority 2020, published 2022).
Like-named read-outs stand apart in the source and are kept apart here.

System: tumor
Settings: rats, 20 mg/kg 5-ALA, cited from earlier work
[1] = sonication at 13.8 W/cm^2 for 20 minutes

In the case of `NCC(=O)CCC(=O)O` [5-ALA, 5-aminolevulinic acid], the “rise of tumor temperature” value [1] is given as “about 2 °C”, the tumor temperature reached [1] is given as 32 °C and the tumor temperature reached (sonication at 27.6 W/cm^2 for 20 minutes) is given as “about 37 °C”.
